Source: PubChem BioAssay AID743121 (NCATS, 2013)
In all, the deposit lists about 26,000 reagents; this is a random part of them. 167 of them (0.63%) count as active. 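Calls are per gene from RSA p-values that are not deposited; an individual active-marked siRNA can sensitise only weakly.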 Reagents against one gene are numbered here. Reagent sequences are not shown.

Screen: 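Genes whose silencing strengthens cell killing by camptothecin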 (primary screen)
System: MDA-MB-231 cells, a human breast cancer line
Reagent: single siRNA against human genes, 20 nM siRNA (0.8 pmol per well)
Time to read-out: 120 h (drug added 48 h after transfection, read 72 h later)
Treatment: camptothecin 20 nM (about EC30) for 72 h; vehicle 0.1% DMSO in parallel plates
Read-out: 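CellTiter-Glo ATP signal, scaled to control siRNA as percent viability; sensitisation given as log2 of untreated divided by camptothecin-treated viability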
Scale: log2 vehicle/camptothecin viability: higher = stronger sensitisation to camptothecin; viability with camptothecin and viability without drug: higher = more viable cells
Call rule: 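Active genes have an RSA gene-level p-value below 0.001, computed from the ratios of their separate siRNAs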

no.	gene symbol	reagent	log2 vehicle/camptothecin viability	viability with camptothecin (% of control)	viability without drug (% of control)	outcome
1	PGK2	1	-0.145	111	101	inactive
2	PGK2	2	-0.452	76.6	56	inactive
3	PGK2	3	-0.175	92.7	82.1	inactive
4	PGK2	4	-0.00318	74.2	74	inactive
5	RGS6	1	-0.135	79.8	72.6	inactive
6	RGS6	2	0.0176	90.1	91.2	inactive
7	RGS6	3	0.00625	88.2	88.6	inactive
8	RGS6	4	-0.266	74.9	62.3	inactive
9	COG2	1	1.75	20.3	68.4	inactive
10	COG2	2	0.437	60.3	81.7	inactive
11	COG2	3	0.161	64.2	71.7	inactive
12	SPARCL1	1	-0.51	51.5	36.2	inactive
13	SPARCL1	2	-0.0944	68	63.7	inactive
14	SPARCL1	3	-0.34	95.2	75.2	inactive
15	SPARCL1	4	-0.447	60.5	44.4	inactive
16	KIF14	1	0.471	71.2	98.6	inactive
17	KIF14	2	-0.143	115	104	inactive
18	KIF14	3	-0.00355	95.6	95.4	inactive
19	TUBB4B	1	-0.255	94.8	79.5	inactive
20	TUBB4B	2	-0.244	75.6	63.9	inactive
21	TUBB4B	3	0.237	74.6	87.9	inactive
22	TUBB4B	4	-0.237	115	97.6	inactive
23	CREB1	1	-0.0447	101	98	inactive
24	CREB1	2	-0.421	99.5	74.3	inactive
25	CREB1	3	-0.21	71.1	61.5	inactive
26	SUOX	1	-0.0485	59.9	57.9	inactive
27	SUOX	2	-0.544	40.1	27.5	inactive
28	SUOX	3	-0.232	88	75	inactive
29	SUOX	4	-0.365	58	45.1	inactive
30	FOLR2	1	-0.336	76.9	60.9	inactive
31	FOLR2	2	-0.466	30.2	21.9	inactive
32	FOLR2	3	0.956	38.5	74.7	inactive
33	FOLR2	4	0.00694	40.7	40.9	inactive
34	OR52H1	1	-0.0716	98.1	93.4	inactive
35	OR52H1	2	-0.231	104	88.7	inactive
36	OR52H1	3	-0.0057	23.7	23.6	inactive
37	OR52H1	4	-0.149	67.8	61.2	inactive

The list goes on; the last 6 above are carried over.
no.	gene symbol	reagent	log2 vehicle/camptothecin viability	viability with camptothecin (% of control)	viability without drug (% of control)	outcome
32	FOLR2	3	0.956	38.5	74.7	inactive
33	FOLR2	4	0.00694	40.7	40.9	inactive
34	OR52H1	1	-0.0716	98.1	93.4	inactive
35	OR52H1	2	-0.231	104	88.7	inactive
36	OR52H1	3	-0.0057	23.7	23.6	inactive
37	OR52H1	4	-0.149	67.8	61.2	inactive
38	PTGER2	1	-0.0591	89.2	85.6	inactive
39	PTGER2	2	-0.573	75.5	50.8	inactive
40	PTGER2	3	-0.453	98.9	72.2	inactive
41	PTGER2	4	0.107	104	112	inactive
42	PTGIR	1	0.141	70	77.2	inactive
43	PTGIR	2	0.117	88.2	95.7	inactive
44	PTGIR	3	1.07	8.4	17.7	inactive
45	PTGIR	4	0.12	26.4	28.7	inactive
46	ROM1	1	-0.219	107	92	inactive
47	ROM1	2	0.056	57.6	59.8	inactive
48	ROM1	3	0.338	45	56.9	inactive
49	ROM1	4	0.0443	65.3	67.3	inactive
50	PRMT7	1	-0.0444	49.5	48	inactive
51	PRMT7	2	-0.287	87.6	71.8	inactive
52	PRMT7	3	-0.275	85.5	70.6	inactive
53	PRMT7	4	-0.214	68.7	59.2	inactive
54	PPARG	1	-0.0842	100	94.8	inactive
55	PPARG	2	-0.414	112	83.8	inactive
56	PPARG	3	-0.148	74.9	67.6	inactive
57	PPARG	4	-0.431	69.2	51.3	inactive
58	PPARG	5	1.57	30.5	90.8	inactive
59	ALOX12	1	0.0318	51	52.1	inactive
60	ALOX12	2	0.093	75.4	80.4	inactive
61	ALOX12	3	-0.235	34	28.9	inactive
62	ALOX12	4	-0.281	27.5	22.6	inactive
63	RAD9A	1	0.138	92.9	102	inactive
64	RAD9A	2	-0.145	55	49.7	inactive
65	RAD9A	3	-0.142	5.26	4.76	inactive
66	RAD9A	4	-0.202	90.2	78.4	inactive
67	SNX6	1	0.318	84.7	106	inactive
68	SNX6	2	-0.473	69.8	50.3	inactive
69	SNX6	3	0.0405	124	127	inactive
70	SNX6	4	-0.375	77.9	60.1	inactive
